Results are given in words; binding and its absence hold for the method and conditions named. Some results given as binding are weak or reduced against the parent protein; the word gives no strength.
Target: T1, JAZ3 (Arabidopsis, UniProt Q9LVI4 1-352)
T1 construct: Endogenous prey in TAP; Y2H fusion in the yeast assays
T1 sequence (looked up): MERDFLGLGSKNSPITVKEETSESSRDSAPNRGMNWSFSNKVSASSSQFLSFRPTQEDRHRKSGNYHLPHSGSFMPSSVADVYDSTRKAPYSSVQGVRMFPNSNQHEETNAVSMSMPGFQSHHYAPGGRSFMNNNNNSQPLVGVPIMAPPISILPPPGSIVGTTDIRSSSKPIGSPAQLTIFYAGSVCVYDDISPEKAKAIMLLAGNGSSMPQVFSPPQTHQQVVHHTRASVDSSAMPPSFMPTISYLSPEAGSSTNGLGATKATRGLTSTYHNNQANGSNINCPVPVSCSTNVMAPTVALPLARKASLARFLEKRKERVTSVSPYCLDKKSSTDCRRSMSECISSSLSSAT
Assay: yeast two-hybrid with truncated versions of PPD2

In the case of TNAVVGQMTIFYSGKVNVYDGVPPEKARSIMHFAAN (peptide, Arabidopsis thaliana, UniProt Q8GY55 151-186, looked up) [PPD2 ZIM domain (truncated version of PPD2)], the binding is reported as “binds”.

Reference: US20170159065A1 (VIB VZW, published 2017)
